Experimental data: PubChem BioAssay AID720710 (VTT Finland, 2013)

Assay: 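Knock-downs that leave cyclin E-high cells sensitive to replication stress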 (primary screen)
Cells: human U-2 OS bone cancer cells, parental and a cyclin E (CCNE1) overexpressing line
Reagents: single siRNA against human genes, 1 µM siRNA in the printed spot mix
Duration: 67 h
Treatment: half the arrays: hydroxyurea 2 mM for 16 h, then 3 h recovery; other arrays untreated
Detection: 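EdU click signal imaged per DAPI-stained nucleus at 67 h; each spot divided by its subgrid median, then z-scored relative to non-targeting control spots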
Reading the numbers: EdU z-score, cyclin E line, hydroxyurea: higher = more DNA synthesis than non-targeting controls
The whole screen tested about 1,380 reagents; below is a random part of them. 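One array per condition without replicates; hydroxyurea arrays received 2 mM for 16 h plus 3 h recovery.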 Reagents against one gene are numbered here. Further read-outs or replicates are left out here.

gene symbol	reagent no.	EdU z-score, cyclin E line, hydroxyurea
H2BC11	1	0.323
H2BC11	2	1.68
ZNF142	1	-0.775
ZNF142	2	-0.601
H2AC7	1	-0.197
H2AC7	2	0.987
CDC7	1	-2.13
CDC7	2	-1.71
FEN1	1	-1.45
FEN1	2	1.3
ERCC5	1	-0.0876
ERCC5	2	0.182
DFFB	1	-0.858
DFFB	2	0.309
MCM6	1	0.406
MCM6	2	0.624
NFIC	1	-3.64
NFIC	2	0.294
H2BC21	1	-0.209
H2BC21	2	0.684
PRKDC	1	-2.01
PRKDC	2	0.58

Continued; the last 2 above are carried over.
gene symbol	reagent no.	EdU z-score, cyclin E line, hydroxyurea
PRKDC	1	-2.01
PRKDC	2	0.58
SOX21	1	-1.05
SOX21	2	-0.604
MAPK1	1	0.247
MAPK1	2	2.84
FAM120B	1	-0.479
FAM120B	2	0.399
SUV39H2	1	-0.713
SUV39H2	2	0.673
ACD	1	-0.678
ACD	2	-0.0757
APLF	1	-0.576
APLF	2	1.69
H2BC17	1	-2.34
H2BC17	2	-0.27
H4C12	1	-0.239
H4C12	2	-0.0643
CBX8	1	-2.32
CBX8	2	0.295
POLG	1	-0.422
POLG	2	-0.11
ZNF93	1	-0.028
ZNF93	2	0.7
LOC642954	1	-0.575
LOC642954	2	2.16
H4C2	1	0.027
H4C2	2	1.26
RAD51D	1	-0.0859
RAD51D	2	0.622
ALKBH1	1	-1.93
ALKBH1	2	-0.829
XRCC6	1	-2.06
XRCC6	2	-0.287
SMARCA1	1	-0.795
SMARCA1	2	-0.256
ERCC8	1	-0.0303
ERCC8	2	0.0326
